Measured values from patent US20110263827A1.
These are yes or no findings as the source states them, for the method shown. Some entries that bind do so weakly or less than the wild type. One block for each binder: values may come before it.

Protein sequences, listed by entry. Tags and fused reporters are not part of them. Lines headed by an entry give the natural chain unless they say otherwise; changes in a name come on top. Chains listed by the source or under a name are the forms on record and can include a tag or linker. Residues count along the entry.
PLGF (P49763, form named): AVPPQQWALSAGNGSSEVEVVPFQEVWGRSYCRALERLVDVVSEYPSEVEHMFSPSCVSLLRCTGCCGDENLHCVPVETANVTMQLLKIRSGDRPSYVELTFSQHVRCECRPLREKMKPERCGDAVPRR
UniProt P14210, residues 32-728: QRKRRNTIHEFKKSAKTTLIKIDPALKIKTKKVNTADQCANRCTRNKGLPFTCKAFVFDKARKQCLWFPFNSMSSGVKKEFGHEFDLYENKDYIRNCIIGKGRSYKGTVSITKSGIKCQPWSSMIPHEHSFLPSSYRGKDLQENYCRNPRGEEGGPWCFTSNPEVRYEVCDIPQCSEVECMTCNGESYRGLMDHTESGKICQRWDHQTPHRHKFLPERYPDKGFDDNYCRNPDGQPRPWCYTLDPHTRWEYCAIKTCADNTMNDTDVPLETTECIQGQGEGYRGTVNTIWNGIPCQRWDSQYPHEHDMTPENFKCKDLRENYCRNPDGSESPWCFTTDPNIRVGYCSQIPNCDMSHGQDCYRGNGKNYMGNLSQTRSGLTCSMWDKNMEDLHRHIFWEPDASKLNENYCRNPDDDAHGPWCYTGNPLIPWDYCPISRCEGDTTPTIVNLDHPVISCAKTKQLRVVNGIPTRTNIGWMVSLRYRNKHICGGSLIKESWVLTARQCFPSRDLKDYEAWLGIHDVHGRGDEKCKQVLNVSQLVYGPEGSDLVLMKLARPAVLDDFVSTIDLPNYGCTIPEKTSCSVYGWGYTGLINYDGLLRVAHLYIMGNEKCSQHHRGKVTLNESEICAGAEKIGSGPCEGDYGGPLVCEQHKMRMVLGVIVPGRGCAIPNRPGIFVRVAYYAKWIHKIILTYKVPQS

Assays:
PLGF = PLGF (UniProt P49763); assay: direct bind ELISA
HGF = HGF (UniProt P14210); assay: direct bind ELISA

B2: DVD777 (bispecific antibody)
VH: QVQLQESGPGLVKPSQTLSLTCTVSGYSISSDFAWNWIRQPPGKGLEWMGYISYSGNTRYQPSLKSRITISRDTSKNQFFLKLNSVTAADTATYYCVTAGRGFPYWGQGTLVTVSSASTKGPSVFPLAPQVQLVESGGGLVKPGGSLRLSCAASGFTFSDYYMSWIRQAPGKGLEWVSYISSSGSTIYYADSVKGRFTISRDNAKNSLYLQMNSLRAEDTAVYYCARDEYNSGWYVLFDYWGQGTLVTVSS
VL: DIQMTQSPSSMSVSVGDRVTITCHSSQDINSNIGWLQQKPGKSFKGLIYHGTNLDDGVPSRFSGSGSGTDYTLTISSLQPEDFATYYCVQYAQFPWTFGGGTKLEIKRTVAAPSVFIFPPDIQMTQSPSSVSASVGDRVTITCRASQGISSWLAWYQQKPGKAPNLLIYEASSLQSGVPSRFGGSGSGTDFTLTISSLQPEDFATYYCQQANGFPWTFGQGTKVEIKR
binding (HGF): binds

B4: DVD813 (bispecific antibody)
VH: QVQLQESGPGLVKPSQTLSLTCTVSGYSISSDFAWNWIRQPPGKGLEWMGYISYSGNTRYQPSLKSRITISRDTSKNQFFLKLNSVTAADTATYYCVTAGRGFPYWGQGTLVTVSSASTKGPSVFPLAPQVQLQQSGAELVKPGASVKISCKASGYTFTDYYINWVKLAPGQGLEWIGWIYPGSGNTKYNEKFKGKATLTIDTSSSTAYMQLSSLTSEDTAVYFCVRDSPFFDYWGQGTLLTVSS
VL: DIQMTQSPSSMSVSVGDRVTITCHSSQDINSNIGWLQQKPGKSFKGLIYHGTNLDDGVPSRFSGSGSGTDYTLTISSLQPEDFATYYCVQYAQFPWTFGGGTKLEIKRTVAAPDIVLTQSPDSLAVSLGERVTMNCKSSQSLLNSGMRKSFLAWYQQKPGQSPKLLIYWASTRESGVPDRFTGSGSGTDFTLTISSVQAEDVAVYYCKQSYHLFTFGSGTKLEIKR
binding (PLGF): binds

Now from value to binder:

binding (PLGF): binds
B1: DVD341 (bispecific antibody)
VH: QVQLQESGPGLVKPSQTLSLTCTVSGYSISSDFAWNWIRQPPGKGLEWMGYISYSGNTRYQPSLKSRITISRDTSKNQFFLKLNSVTAADTATYYCVTAGRGFPYWGQGTLVTVSSASTKGPQVQLQQSGAELVKPGASVKISCKASGYTFTDYYINWVKLAPGQGLEWIGWIYPGSGNTKYNEKFKGKATLTIDTSSSTAYMQLSSLTSEDTAVYFCVRDSPFFDYWGQGTLLTVSS
VL: DIQMTQSPSSMSVSVGDRVTITCHSSQDINSNIGWLQQKPGKSFKGLIYHGTNLDDGVPSRFSGSGSGTDYTLTISSLQPEDFATYYCVQYAQFPWTFGGGTKLEIKRTVAAPDIVLTQSPDSLAVSLGERVTMNCKSSQSLLNSGMRKSFLAWYQQKPGQSPKLLIYWASTRESGVPDRFTGSGSGTDFTLTISSVQAEDVAVYYCKQSYHLFTFGSGTKLEIKR

binding (PLGF): binds
B3: DVD783 (bispecific antibody)
VH: QVQLQESGPGLVKPSQTLSLTCTVSGYSISSDFAWNWIRQPPGKGLEWMGYISYSGNTRYQPSLKSRITISRDTSKNQFFLKLNSVTAADTATYYCVTAGRGFPYWGQGTLVTVSSASTKGPSVFPLAPQVQLQQSGAELVKPGASVKISCKASGYTFTDYYINWVKLAPGQGLEWIGWIYPGSGNTKYNEKFKGKATLTIDTSSSTAYMQLSSLTSEDTAVYFCVRDSPFFDYWGQGTLLTVSS
VL: DIQMTQSPSSMSVSVGDRVTITCHSSQDINSNIGWLQQKPGKSFKGLIYHGTNLDDGVPSRFSGSGSGTDYTLTISSLQPEDFATYYCVQYAQFPWTFGGGTKLEIKRTVAAPSVFIFPPDIVLTQSPDSLAVSLGERVTMNCKSSQSLLNSGMRKSFLAWYQQKPGQSPKLLIYWASTRESGVPDRFTGSGSGTDFTLTISSVQAEDVAVYYCKQSYHLFTFGSGTKLEIKR

binding (PLGF): binds
B5: DVD843 (bispecific antibody)
VH: QVQLQESGPGLVKPSQTLSLTCTVSGYSISSDFAWNWIRQPPGKGLEWMGYISYSGNTRYQPSLKSRITISRDTSKNQFFLKLNSVTAADTATYYCVTAGRGFPYWGQGTLVTVSSASTKGPQVQLQQSGAELVKPGASVKISCKASGYTFTDYYINWVKLAPGQGLEWIGWIYPGSGNTKYNEKFKGKATLTIDTSSSTAYMQLSSLTSEDTAVYFCVRDSPFFDYWGQGTLLTVSS
VL: DIQMTQSPSSMSVSVGDRVTITCHSSQDINSNIGWLQQKPGKSFKGLIYHGTNLDDGVPSRFSGSGSGTDYTLTISSLQPEDFATYYCVQYAQFPWTFGGGTKLEIKRTVAAPSVFIFPPDIVLTQSPDSLAVSLGERVTMNCKSSQSLLNSGMRKSFLAWYQQKPGQSPKLLIYWASTRESGVPDRFTGSGSGTDFTLTISSVQAEDVAVYYCKQSYHLFTFGSGTKLEIKR
